What all share (test): co-IP; A2058 cells transiently co-transfected with one FLAG-tagged and one non-tagged expression vector, harvested after 24 h; lysis buffer 100 mM Tris HCl pH 7.5, 300 mM NaCl, 2 mM EDTA, 2% Triton X-100; anti-FLAG M2 affinity gel (FLAG Immunoprecipitation Kit); western blotting with anti-PITX1 and anti-ZCCHC10 antibodies; control: empty FLAG vector
(In general: A western blot detects proteins with antibodies after separation by electrophoresis.)

Amino acid sequences for entries named in this document (tags omitted). A change or cut given only in a name is not applied to a line headed by its entry.
UniProt Q8TBK6: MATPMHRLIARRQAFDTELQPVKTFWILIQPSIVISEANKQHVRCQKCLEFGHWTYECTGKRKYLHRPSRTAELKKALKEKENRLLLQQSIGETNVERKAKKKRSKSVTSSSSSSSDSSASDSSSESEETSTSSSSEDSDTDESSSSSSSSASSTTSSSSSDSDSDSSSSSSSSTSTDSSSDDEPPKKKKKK

For assay [1], the target named is FLAG-tagged ZCCHC10 in which the CCHC domain was deleted (human) (UniProt Q8TBK6).
For assay [2], the target named is FLAG-PITX1 homeodomain 2 (half of the C-terminal side of the homeodomain deleted) (human) (UniProt P78337).
Assay [3] has as its target FLAG-PITX1 deleted OAR (OAR domain deleted) (human) (UniProt P78337).

No constants are given. Whether binding was seen depends on the method and setting. Binding seen in cells or lysates may run through a third protein. For part of these data: A result given as binding can be weak or reduced; the word gives no strength.

“PITX1, wild type, non-tagged expression vector (from UniProt P78337 1-314)”: the binding result in assay [1] was “no binding”. As to “ZCCHC10, wild type, non-tagged expression vector (from UniProt Q8TBK6 1-192)”, the binding result was “no binding” in assay [2] and “binds” in assay [3].

The values above are taken from article PMC6690549.
